# The supplement of paper PMC12889115
# This is one part of the list. These are raw signals, not scaled to a control.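 First-pass screen: polymyxin B was added at a level that permeabilizes the Salmonella outer membrane while sparing the inner membrane. DMSO wells, with and without polymyxin B, defined maximum growth. Because plates differed from one another, each plate's data were ranked separately and the compounds with the lowest OD600 were carried forward as hits.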
# System: Salmonella enterica serovar Typhimurium SL1344
# Experiment: bacterial growth OD600 after 18 h with compound and polymyxin B; higher = more bacterial growth (less inhibition)
# Details: 50 µM, Mueller-Hinton broth
Structure (SMILES),bacterial growth OD600 (polymyxin B 0.75 µg/mL),bacterial growth OD600 (polymyxin B 1 µg/mL)
COCc1ccc(C(=O)N2CCCCC2C(=O)Nc2cccc(-c3nnc(C)s3)c2)o1 (stereo unspecified),0.84,
COc1ccccc1CCN1CCCC(CN(C)Cc2ccc(C)o2)C1 (stereo unspecified),0.797,
Cc1cc(OCc2cc(C(=O)N[C@H]3CCCCNC3=O)no2)cc(C)c1Cl,0.629,
Cc1ccc(CN(C)C(=O)CC(c2ccccc2)c2ccc3c(c2)OCO3)o1 (stereo unspecified),,0.012
Cc1ccccc1N1CCN(C2CCCN(C(=O)CCn3cnc4ccccc43)C2)CC1 (stereo unspecified),,0.806
CC(C)(C)CC(=O)N1CCC2(CCCN(Cc3cccc(F)c3F)C2=O)C1 (stereo unspecified),,0.884
O=C(c1cn(C/C=C/c2ccccc2)nn1)N1CCCN(C2CCCCC2)CC1,,1.26
CCOC(=O)N1CCN(Cc2ccc3c(c2)CN(C(=O)c2cccs2)CCO3)CC1,0.84,
CC(=O)NC1CCCc2nc(N3CCC(CO)CC3)ncc21 (stereo unspecified),0.829,
O=C(Nc1ccc(Oc2cccnc2)cc1)C1CCN(Cc2cccc(O)c2)CC1,,1.06
COc1ccc(CCC2CCCN(C(=O)CSC)C2)cc1 (stereo unspecified),0.368,
CCOC(=O)N1CCN(C(=O)c2cn(C3CCCCCC3)nn2)CC1,,0.969
COc1ccc(CNC(=O)C2CCC(=O)N(C3CCCCCC3)C2)c(OC)c1 (stereo unspecified),,0.84
Cc1nc2cc(OCc3nc(C(=O)NCc4ccccn4)co3)ccc2s1,,0.84
COc1ccc(C(=O)Nc2ccnn2C2CCN(C(=O)c3cccs3)CC2)cc1,,0.851
O=C(CC(c1cccc(O)c1)c1ccccc1Cl)NC1CC1 (stereo unspecified),,0.78

# Reprinted at random: 2 records from the list.
Structure (SMILES),bacterial growth OD600 (polymyxin B 0.75 µg/mL),bacterial growth OD600 (polymyxin B 1 µg/mL)
COc1ccc(C(=O)Nc2ccnn2C2CCN(C(=O)c3cccs3)CC2)cc1,,0.851
COc1ccc(CCC2CCCN(C(=O)CSC)C2)cc1 (stereo unspecified),0.368,

# (list continues)

Structure (SMILES),bacterial growth OD600 (polymyxin B 0.75 µg/mL),bacterial growth OD600 (polymyxin B 1 µg/mL)
CCOC(=O)C1(Cc2ccc(Cl)cc2)CCN(Cc2cccc3nonc23)CC1,,0.714
COCC(=O)Nc1cc(C(=O)N(C)Cc2nc3ccc(F)cc3[nH]2)c2c(c1)nc(C1CCC1)n2C,0.802,
COCC(=O)N1CCC(Oc2ccccc2C(=O)N(C)Cc2nc(C)c[nH]2)CC1,,1.02
Cc1nc(N2CCC(C(=O)NC3C4CC5CC(C4)CC3C5)CC2)nc2cc(S(C)(=O)=O)ccc12 (stereo unspecified),0.547,
O=C(c1cn(C2CCCCC2)nn1)N1CCCCC1c1cccnc1 (stereo unspecified),,0.835
CN(C(=O)c1ccccn1)C(Cc1ccccc1)C1CCN(C(=O)/C(F)=C/c2ccccc2)CC1 (stereo unspecified),0.002,
C=Cc1ccc(C(=O)N2CCOc3ccc(C(O)CCc4ccccc4)cc3C2)cc1 (stereo unspecified),0.507,
CN(Cc1ccccc1)C(=O)c1coc(COc2ccc3c(c2)OCO3)n1,,0.699
CN(C)C(=O)C1CCCN(C2CCN(c3nc4ccccc4o3)CC2)C1 (stereo unspecified),0.798,
COCC1CCCN(Cc2ccc3c(c2)CN(C(=O)CCn2cnc4ccccc4c2=O)CCO3)C1 (stereo unspecified),0.926,
CCN1CCN(C2(C(=O)N3CCC(OC)CC3)Cc3ccccc3C2)CC1,0.828,
CC(=O)NCCC(=O)N(C)CC1CCN(CCc2ccccc2F)CC1,,1.19
Cc1ncsc1CCC(=O)NCc1nc(-c2cccc(NC(=O)C3CCCN(C)C3)c2)oc1C (stereo unspecified),0.856,
Cc1ccc(-c2cn3c(C(=O)N4CCCCCCC4)csc3n2)cc1,,0.379
CO[C@H]1[C@H](NC(=O)c2ccncc2)c2ccccc2C12CCN(C(=O)Cc1c(F)cccc1F)CC2,0.998,
